Test results: article PMC5595348
No constants are given. Whether binding was seen depends on the method and setting. Binding seen in cells or lysates may run through a third protein. Some results given as binding are weak or reduced against the parent protein; the word gives no strength. For some of these results: Tags and fused reporters may be left off the sequences shown.

Chains of the proteins cited; added tags and fusions are not shown. Lines headed by an entry give the natural chain unless they say otherwise; changes in a name come on top. A line that says so, or that is headed by a name, gives the form on record, which may keep a tag or linker.
UniProt O14964: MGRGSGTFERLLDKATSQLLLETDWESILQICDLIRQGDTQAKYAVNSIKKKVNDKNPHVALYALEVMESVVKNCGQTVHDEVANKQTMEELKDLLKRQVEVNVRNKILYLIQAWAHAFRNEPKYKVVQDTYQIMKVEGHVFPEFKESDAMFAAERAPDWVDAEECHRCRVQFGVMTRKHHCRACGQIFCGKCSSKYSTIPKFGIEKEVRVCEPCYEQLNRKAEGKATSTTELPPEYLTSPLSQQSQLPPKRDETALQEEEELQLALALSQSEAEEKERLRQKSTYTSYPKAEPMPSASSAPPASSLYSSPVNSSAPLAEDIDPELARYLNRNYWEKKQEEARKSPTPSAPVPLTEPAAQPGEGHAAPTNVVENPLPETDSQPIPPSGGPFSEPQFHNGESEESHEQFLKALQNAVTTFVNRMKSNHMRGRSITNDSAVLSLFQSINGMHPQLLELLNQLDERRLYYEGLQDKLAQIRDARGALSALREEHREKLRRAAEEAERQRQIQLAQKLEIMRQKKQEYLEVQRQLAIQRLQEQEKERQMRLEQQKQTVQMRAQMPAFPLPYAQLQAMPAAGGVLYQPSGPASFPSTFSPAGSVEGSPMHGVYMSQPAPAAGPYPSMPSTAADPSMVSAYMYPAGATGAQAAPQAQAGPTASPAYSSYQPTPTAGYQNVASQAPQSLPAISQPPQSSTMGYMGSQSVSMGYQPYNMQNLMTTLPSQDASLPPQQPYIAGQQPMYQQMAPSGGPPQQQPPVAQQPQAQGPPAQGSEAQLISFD
dFYVE-HRS-Myc (HRS with a deletion of amino acids 166-215, FYVE domain deleted) (O14964-1, form named): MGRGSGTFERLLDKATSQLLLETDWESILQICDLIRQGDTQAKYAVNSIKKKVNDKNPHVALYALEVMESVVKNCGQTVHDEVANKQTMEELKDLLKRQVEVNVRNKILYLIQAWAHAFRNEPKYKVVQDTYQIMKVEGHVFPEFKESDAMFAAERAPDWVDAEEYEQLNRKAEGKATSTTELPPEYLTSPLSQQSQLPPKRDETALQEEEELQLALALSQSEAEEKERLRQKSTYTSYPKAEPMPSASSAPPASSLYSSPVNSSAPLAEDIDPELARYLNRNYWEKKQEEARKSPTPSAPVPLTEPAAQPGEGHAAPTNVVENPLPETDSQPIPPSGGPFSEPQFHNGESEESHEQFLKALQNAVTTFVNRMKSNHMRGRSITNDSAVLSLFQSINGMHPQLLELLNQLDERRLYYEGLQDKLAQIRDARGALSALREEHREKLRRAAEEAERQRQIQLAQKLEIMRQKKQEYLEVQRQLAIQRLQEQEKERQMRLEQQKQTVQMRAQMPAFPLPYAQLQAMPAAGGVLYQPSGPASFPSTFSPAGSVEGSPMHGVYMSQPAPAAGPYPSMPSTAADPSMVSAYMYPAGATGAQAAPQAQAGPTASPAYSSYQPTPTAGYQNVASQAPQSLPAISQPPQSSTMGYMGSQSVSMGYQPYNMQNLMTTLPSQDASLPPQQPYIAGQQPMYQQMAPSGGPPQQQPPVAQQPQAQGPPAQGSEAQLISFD

T1: Flag-TAB1 (human) (UniProt Q15750)
T1 sequence: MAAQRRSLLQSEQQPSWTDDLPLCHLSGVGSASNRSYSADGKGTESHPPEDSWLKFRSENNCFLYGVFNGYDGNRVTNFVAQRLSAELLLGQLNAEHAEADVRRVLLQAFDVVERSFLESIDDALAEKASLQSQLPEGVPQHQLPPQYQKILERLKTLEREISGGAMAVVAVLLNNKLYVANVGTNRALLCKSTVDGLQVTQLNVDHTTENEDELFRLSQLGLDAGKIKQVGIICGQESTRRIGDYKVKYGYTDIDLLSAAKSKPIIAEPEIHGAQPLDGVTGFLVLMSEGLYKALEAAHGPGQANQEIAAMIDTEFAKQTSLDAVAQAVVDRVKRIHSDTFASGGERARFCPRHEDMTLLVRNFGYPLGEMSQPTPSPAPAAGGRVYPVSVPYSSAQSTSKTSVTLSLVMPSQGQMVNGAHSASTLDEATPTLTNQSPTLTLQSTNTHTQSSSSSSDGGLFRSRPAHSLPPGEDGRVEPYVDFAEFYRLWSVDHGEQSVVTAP

T2: Flag-TLR7 fusion protein (human) (UniProt Q9NYK1)
T2 sequence: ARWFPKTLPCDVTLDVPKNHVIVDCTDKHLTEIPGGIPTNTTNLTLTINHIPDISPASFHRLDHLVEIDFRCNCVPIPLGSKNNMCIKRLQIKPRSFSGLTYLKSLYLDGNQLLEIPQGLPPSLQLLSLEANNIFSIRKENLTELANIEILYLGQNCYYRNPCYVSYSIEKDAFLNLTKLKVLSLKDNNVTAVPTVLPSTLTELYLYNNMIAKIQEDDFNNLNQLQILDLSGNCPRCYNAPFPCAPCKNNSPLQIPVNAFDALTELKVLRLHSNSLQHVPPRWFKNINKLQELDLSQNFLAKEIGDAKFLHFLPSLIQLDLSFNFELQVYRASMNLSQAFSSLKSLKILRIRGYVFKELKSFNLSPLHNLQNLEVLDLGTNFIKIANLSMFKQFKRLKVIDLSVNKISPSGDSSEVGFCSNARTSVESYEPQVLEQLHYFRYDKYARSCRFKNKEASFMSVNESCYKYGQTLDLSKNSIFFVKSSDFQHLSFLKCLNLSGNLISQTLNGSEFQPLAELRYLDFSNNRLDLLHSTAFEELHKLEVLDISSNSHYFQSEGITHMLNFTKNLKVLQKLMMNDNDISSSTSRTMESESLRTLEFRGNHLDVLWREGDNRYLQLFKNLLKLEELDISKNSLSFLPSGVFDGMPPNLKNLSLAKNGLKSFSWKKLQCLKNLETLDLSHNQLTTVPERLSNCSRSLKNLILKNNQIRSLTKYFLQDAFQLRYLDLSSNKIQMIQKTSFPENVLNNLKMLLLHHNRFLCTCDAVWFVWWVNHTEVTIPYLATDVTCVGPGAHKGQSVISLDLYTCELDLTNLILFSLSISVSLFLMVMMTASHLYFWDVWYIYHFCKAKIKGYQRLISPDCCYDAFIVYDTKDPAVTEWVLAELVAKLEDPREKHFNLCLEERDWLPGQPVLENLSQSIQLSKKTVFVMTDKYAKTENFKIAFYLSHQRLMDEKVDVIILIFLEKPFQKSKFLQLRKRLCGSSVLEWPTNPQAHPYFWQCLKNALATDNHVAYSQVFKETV

T3: VN-173-TAB1 fusion protein (human) (UniProt Q15750)
T3 sequence: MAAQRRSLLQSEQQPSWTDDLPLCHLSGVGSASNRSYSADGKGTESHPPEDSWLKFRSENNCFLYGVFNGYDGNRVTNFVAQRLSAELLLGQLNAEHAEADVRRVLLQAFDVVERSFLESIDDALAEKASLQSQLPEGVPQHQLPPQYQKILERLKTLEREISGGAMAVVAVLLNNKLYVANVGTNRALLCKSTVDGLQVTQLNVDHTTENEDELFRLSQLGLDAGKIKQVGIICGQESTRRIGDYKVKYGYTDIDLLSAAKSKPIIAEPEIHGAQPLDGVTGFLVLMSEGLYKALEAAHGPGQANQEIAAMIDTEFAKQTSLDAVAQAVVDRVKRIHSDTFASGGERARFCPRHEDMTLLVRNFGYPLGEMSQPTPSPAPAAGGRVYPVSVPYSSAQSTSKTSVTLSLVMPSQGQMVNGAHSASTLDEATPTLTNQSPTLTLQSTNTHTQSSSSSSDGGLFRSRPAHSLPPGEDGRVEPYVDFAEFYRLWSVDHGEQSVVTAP

T4: VN-173-TLR7 fusion protein (human) (UniProt Q9NYK1)
T4 sequence: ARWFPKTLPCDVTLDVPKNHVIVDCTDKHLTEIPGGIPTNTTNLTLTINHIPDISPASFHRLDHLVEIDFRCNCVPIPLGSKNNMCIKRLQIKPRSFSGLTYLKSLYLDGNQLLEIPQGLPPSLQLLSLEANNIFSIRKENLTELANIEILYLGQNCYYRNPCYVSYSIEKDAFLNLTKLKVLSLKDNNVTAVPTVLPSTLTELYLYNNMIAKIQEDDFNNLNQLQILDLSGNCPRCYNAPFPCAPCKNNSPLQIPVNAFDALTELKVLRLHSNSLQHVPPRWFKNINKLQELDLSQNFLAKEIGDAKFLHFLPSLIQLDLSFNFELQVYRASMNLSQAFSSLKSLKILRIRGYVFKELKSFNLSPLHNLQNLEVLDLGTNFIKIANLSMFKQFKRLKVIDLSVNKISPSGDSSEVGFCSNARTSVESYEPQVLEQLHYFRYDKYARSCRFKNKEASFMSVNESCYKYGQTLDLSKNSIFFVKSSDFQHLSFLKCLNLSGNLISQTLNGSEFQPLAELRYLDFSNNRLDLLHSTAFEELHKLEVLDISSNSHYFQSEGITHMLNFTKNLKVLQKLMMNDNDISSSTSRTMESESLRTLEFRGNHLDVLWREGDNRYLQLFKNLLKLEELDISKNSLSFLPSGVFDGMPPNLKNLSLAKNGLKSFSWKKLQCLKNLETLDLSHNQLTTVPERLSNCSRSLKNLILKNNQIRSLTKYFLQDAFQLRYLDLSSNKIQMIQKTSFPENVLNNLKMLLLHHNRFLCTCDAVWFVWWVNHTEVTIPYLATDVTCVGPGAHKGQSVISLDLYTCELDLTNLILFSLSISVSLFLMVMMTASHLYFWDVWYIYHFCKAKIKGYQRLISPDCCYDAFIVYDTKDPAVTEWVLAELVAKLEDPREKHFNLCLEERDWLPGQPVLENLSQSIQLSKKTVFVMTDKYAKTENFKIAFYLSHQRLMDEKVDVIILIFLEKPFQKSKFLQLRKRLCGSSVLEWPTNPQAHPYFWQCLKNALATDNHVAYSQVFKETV

T5: TLR7 (endogenous) (human (endogenous in THP-1)) (UniProt Q9NYK1)
T5 sequence: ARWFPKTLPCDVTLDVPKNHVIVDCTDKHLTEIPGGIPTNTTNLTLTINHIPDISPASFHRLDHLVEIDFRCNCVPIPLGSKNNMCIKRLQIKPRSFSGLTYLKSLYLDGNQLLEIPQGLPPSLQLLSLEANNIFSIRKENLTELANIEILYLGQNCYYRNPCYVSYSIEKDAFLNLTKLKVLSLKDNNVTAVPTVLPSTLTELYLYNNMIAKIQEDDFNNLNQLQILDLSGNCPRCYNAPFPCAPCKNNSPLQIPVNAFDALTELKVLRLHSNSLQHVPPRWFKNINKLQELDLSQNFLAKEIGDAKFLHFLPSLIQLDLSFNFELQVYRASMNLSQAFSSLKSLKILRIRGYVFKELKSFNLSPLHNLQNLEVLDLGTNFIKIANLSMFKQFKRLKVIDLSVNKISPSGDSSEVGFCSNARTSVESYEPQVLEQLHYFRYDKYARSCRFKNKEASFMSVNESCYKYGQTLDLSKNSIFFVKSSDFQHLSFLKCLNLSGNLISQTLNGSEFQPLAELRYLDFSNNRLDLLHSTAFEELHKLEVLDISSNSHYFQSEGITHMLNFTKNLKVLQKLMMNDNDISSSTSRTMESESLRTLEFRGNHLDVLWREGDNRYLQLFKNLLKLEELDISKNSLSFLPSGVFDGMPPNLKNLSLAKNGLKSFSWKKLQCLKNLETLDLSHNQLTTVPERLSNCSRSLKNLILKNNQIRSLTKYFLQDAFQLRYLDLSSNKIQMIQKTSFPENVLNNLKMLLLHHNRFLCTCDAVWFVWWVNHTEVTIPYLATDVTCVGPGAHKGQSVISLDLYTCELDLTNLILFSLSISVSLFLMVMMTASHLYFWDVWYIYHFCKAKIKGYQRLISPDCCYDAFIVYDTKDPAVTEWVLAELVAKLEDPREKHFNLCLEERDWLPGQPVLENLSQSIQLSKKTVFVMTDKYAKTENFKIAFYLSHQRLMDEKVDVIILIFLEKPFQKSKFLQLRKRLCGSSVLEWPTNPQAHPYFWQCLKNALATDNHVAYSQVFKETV


Assays:
Flag-TAB1 (human) = biological target: T1, Flag-TAB1 (human); assay: co-IP; HEK293T cells co-transfected with Flag-TLR7 or Flag-TAB1 and HRS-Myc (or dFYVE-Myc); cell lysates immunoprecipitated with anti-Flag or anti-Myc antibodies; Western blot
[1] = biological target: T2, Flag-TLR7 fusion protein (human); assay: as above
[2] = biological target: T3, VN-173-TAB1 fusion protein (human); assay: split reporter; BiFC with Venus YFP fragments VN-173 and VC-155 in living HEK293T cells, 24 h after transfection, pre-cultured at 4 °C for 10 min; confocal microscopy
[3] = biological target: T4, VN-173-TLR7 fusion protein (human); assay: as above
[4] = biological target: T5, TLR7 (endogenous) (human (endogenous in THP-1)); assay: co-IP; endogenous proteins; macrophages treated with R848 (100 ng/ml) for indicated times, separated into cytosol (S100K) and membrane (P100K) fractions by 100,000 g ultracentrifugation; fractions immunoprecipitated (TLR7) and analysed by Western blot
[5] = biological target: T5, TLR7 (endogenous) (human (endogenous in THP-1)); assay: co-IP; endogenous proteins; macrophages derived from THP-1 cells stimulated with R848 (100 ng/ml) or infected with EV71 (MOI = 5) for various times, also after transfection of siR-HRS or siR-NC; lysed in RIPA buffer; immunoprecipitated with rabbit anti-TLR7 or normal rabbit IgG and protein G …; Western blot
GST-HRS (human) = GST-HRS (human) (UniProt O14964); assay: pull-down; 25 ug purified GST or GST-HRS and glutathione-sepharose beads incubated with THP-1 cell lysate for 2 h at 4 °C; four washes with ice-cold lysis buffer; immunoblot; only the target purified

Row | Molecule | binding [1] | binding [5] | binding (GST-HRS (human)) | other results
1 | HRS-Myc fusion protein (hepatocyte growth factor-regulated tyrosine kinase substrate) (from UniProt O14964-1 1-777) | binds | – | – | binding (Flag-TAB1 (human)): binds
2 | VC-155-HRS fusion protein (from UniProt O14964-1 1-777) | – | – | – | binding [2]: binds; binding [3]: binds
3 | HRS (endogenous) (from UniProt O14964-1 1-777) | – | binds | – | binding [4]: binds
4 | dFYVE-HRS-Myc (HRS with a deletion of amino acids 166-215, FYVE domain deleted) (from UniProt O14964-1 1-777) | no binding | – | – | –
5 | TAB1 (endogenous) (protein, UniProt Q15750 1-504) MAAQRRSLLQSEQQPSWTDDLPLCHLSGVGSASNRSYSADGKGTESHPPEDSWLKFRSENNCFLYGVFNGYDGNRVTNFVAQRLSAELLLGQLNAEHAEADVRRVLLQAFDVVERSFLESIDDALAEKASLQSQLPEGVPQHQLPPQYQKILERLKTLEREISGGAMAVVAVLLNNKLYVANVGTNRALLCKSTVDGLQVTQLNVDHTTENEDELFRLSQLGLDAGKIKQVGIICGQESTRRIGDYKVKYGYTDIDLLSAAKSKPIIAEPEIHGAQPLDGVTGFLVLMSEGLYKALEAAHGPGQANQEIAAMIDTEFAKQTSLDAVAQAVVDRVKRIHSDTFASGGERARFCPRHEDMTLLVRNFGYPLGEMSQPTPSPAPAAGGRVYPVSVPYSSAQSTSKTSVTLSLVMPSQGQMVNGAHSASTLDEATPTLTNQSPTLTLQSTNTHTQSSSSSSDGGLFRSRPAHSLPPGEDGRVEPYVDFAEFYRLWSVDHGEQSVVTAP | – | binds | binds | –
6 | TAK1 (endogenous) (protein, UniProt O43318 1-606) MSTASAASSSSSSSAGEMIEAPSQVLNFEEIDYKEIEVEEVVGRGAFGVVCKAKWRAKDVAIKQIESESERKAFIVELRQLSRVNHPNIVKLYGACLNPVCLVMEYAEGGSLYNVLHGAEPLPYYTAAHAMSWCLQCSQGVAYLHSMQPKALIHRDLKPPNLLLVAGGTVLKICDFGTACDIQTHMTNNKGSAAWMAPEVFEGSNYSEKCDVFSWGIILWEVITRRKPFDEIGGPAFRIMWAVHNGTRPPLIKNLPKPIESLMTRCWSKDPSQRPSMEEIVKIMTHLMRYFPGADEPLQYPCQYSDEGQSNSATSTGSFMDIASTNTSNKSDTNMEQVPATNDTIKRLESKLLKNQAKQQSESGRLSLGASRGSSVESLPPTSEGKRMSADMSEIEARIAATTAYSKPKRGHRKTASFGNILDVPEIVISGNGQPRRRSIQDLTVTGTEPGQVSSRSSSPSVRMITTSGPTSEKPTRSHPWTPDDSTDTNGSDNSIPMAYLTLDHQLQPLAPCPNSKESMAVFEQHCKMAQEYMKVQTEIALLLQRKQELVAELDQDEKDQQNTSRLVQEHKKLLDENKSLSTYYQQCKKQLEVIRSQQQKRQGTS | – | – | binds | –
